Reference: US20130244963A1 (Portola Pharmaceuticals, Inc., priority 2010, published 2013)

Assays:
Daudi = test: Viability of Burkitt's lymphoma cell line by luminescent ATP detection; assay type: cell-based
Ramos = test: as above; assay type: cell-based

SMILES | Hill slope (Daudi) | Hill slope (Ramos)
NC(=O)c1cnc(N[C@@H]2CCCC[C@@H]2N)nc1Nc1cccc(-n2nccn2)c1 [Compound 1, 4-(3-(2H-1,2,3-triazol-2-yl)phenylamino)-2-((1R,2S)-2-aminocyclohexylamino)pyrimidine-5-carboxamide] | 1.42 and 1.44 | 1.17 and 1.43
COc1cccc2c1C(=O)c1c(O)c3c(c(O)c1C2=O)C[C@@](O)(C(=O)CO)C[C@@H]3O[C@H]1C[C@H](N)[C@H](O)[C@H](C)O1 [Doxorubicin, reference compound] | 1.26 | 3.7

“And” between values parts separate entries of the source, which are not always exact repeats. Equal values may be shown once.
